Measured values taken from PubChem BioAssay AID2662 (National Center for Advancing Translational Sciences (NCATS), 2010).
Among all 290,000 compounds or so, about 110 (0.038%) were called active. All entries are inconclusive by the source's own rule. Clear calls are listed elsewhere. Calls come from the whole dose curve; as a rule, active = well fitted inhibition curve with a large enough effect in the polarisation, with a control signal flat (not every such curve was filed as active); inconclusive = small, poorly fitted or top-dose-only effect, or effect the other way, or a change in a side signal; inactive = no such curve, though single readings can be large or run the other way; the % refers to the polarisation.

By UniProt entry, the sequences of proteins in these tests, tags left out.
UniProt Q03164, whole entry: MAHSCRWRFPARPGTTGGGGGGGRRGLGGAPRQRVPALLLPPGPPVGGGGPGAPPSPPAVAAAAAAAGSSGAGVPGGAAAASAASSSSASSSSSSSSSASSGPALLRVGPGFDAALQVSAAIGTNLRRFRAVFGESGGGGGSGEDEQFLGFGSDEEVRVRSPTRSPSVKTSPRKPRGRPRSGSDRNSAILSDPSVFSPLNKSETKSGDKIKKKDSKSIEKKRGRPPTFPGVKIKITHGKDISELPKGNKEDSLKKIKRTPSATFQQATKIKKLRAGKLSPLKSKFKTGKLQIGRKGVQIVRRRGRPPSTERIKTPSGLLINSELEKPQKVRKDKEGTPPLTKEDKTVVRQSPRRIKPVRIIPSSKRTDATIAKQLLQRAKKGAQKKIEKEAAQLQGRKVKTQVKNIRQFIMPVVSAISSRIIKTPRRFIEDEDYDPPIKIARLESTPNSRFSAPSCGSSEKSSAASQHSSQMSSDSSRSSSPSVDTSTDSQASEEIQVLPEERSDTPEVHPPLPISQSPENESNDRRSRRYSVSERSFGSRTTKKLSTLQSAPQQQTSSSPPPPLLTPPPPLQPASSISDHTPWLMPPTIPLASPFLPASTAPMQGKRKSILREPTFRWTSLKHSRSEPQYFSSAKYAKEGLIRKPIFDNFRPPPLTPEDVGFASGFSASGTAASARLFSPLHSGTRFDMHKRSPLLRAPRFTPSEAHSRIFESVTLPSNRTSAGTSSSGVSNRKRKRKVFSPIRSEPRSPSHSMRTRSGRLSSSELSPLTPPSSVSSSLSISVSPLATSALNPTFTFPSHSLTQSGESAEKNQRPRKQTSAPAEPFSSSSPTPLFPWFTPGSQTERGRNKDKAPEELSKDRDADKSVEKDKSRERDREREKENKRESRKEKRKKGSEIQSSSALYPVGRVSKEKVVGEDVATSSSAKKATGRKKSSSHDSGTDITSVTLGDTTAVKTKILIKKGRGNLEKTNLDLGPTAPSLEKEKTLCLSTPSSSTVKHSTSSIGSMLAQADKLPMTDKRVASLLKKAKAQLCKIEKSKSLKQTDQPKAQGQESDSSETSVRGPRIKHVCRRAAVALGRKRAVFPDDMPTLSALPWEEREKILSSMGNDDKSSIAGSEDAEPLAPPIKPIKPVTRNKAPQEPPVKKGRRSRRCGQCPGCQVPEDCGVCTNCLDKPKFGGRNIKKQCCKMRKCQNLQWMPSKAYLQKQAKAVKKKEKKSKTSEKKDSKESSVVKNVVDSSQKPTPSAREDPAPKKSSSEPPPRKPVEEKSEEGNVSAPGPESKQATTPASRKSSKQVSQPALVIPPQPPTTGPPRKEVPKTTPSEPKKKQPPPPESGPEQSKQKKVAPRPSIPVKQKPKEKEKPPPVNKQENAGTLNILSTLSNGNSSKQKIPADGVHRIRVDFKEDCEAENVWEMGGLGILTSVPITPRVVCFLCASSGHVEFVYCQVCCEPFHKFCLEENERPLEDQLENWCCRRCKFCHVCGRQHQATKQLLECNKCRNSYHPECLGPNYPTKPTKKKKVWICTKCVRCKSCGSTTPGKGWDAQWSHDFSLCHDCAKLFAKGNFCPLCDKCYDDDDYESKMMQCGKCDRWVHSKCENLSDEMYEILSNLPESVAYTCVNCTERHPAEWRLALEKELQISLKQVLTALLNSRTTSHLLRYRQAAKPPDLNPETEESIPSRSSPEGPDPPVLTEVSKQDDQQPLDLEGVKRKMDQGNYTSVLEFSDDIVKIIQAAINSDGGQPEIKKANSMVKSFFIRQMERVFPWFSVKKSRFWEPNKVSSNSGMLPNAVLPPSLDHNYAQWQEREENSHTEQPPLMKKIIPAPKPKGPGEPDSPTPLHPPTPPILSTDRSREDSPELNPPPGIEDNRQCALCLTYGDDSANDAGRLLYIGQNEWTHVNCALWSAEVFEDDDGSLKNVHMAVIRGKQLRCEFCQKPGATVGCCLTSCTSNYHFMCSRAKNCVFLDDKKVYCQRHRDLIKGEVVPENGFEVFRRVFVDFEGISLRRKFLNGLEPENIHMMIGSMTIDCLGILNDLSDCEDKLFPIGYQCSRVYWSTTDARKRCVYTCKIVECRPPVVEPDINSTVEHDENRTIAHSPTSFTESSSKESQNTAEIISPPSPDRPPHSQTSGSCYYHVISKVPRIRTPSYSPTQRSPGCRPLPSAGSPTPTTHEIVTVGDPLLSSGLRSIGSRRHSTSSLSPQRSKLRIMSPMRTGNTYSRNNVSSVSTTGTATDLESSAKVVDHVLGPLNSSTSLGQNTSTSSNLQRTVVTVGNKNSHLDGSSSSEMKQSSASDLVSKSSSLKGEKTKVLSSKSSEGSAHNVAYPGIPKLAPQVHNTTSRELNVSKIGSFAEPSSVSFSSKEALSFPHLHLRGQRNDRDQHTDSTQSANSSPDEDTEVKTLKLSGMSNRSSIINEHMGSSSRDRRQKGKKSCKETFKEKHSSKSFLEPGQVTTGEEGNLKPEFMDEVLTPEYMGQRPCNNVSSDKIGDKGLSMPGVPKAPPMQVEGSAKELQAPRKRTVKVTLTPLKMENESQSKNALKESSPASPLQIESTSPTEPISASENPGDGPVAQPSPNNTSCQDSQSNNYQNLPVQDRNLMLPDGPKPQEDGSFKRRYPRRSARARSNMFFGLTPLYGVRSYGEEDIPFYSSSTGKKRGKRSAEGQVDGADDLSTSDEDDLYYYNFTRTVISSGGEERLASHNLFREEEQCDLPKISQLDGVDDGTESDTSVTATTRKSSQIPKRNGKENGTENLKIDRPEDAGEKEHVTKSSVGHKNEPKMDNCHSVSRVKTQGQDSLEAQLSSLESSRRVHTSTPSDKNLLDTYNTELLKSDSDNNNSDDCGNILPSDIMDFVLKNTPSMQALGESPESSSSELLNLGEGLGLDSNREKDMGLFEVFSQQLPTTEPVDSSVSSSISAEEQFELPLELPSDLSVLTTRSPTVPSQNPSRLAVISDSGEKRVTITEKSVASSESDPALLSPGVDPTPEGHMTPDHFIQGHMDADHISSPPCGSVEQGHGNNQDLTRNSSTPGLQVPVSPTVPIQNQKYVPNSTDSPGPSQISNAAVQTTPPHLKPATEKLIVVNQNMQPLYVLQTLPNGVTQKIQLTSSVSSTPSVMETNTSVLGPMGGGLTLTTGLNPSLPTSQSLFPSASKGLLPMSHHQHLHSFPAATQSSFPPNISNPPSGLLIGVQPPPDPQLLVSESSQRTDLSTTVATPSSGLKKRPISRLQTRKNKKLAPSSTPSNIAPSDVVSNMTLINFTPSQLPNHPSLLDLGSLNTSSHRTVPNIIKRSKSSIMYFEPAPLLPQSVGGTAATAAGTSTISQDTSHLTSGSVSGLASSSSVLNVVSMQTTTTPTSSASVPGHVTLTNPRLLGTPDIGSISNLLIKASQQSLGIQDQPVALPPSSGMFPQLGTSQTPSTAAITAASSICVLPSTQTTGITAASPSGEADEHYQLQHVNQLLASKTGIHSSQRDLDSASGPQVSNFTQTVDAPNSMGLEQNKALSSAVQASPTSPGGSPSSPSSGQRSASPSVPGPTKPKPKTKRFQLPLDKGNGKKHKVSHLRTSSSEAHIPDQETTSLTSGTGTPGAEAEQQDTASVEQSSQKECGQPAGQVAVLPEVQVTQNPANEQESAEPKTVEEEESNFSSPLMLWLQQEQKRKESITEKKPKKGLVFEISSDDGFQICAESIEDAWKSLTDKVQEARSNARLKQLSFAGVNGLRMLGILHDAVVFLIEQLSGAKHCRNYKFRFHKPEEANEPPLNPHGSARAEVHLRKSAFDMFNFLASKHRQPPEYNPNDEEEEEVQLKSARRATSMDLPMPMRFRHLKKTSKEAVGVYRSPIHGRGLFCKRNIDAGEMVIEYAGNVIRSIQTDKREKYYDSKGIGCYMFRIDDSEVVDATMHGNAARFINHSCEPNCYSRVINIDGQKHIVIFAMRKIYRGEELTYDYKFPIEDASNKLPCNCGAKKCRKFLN

target: Histone-lysine N-methyltransferase 2A (Homo sapiens) (UniProt Q03164); experiment: qHTS Fluorescence Polarization Assay for Inhibitors of MLL CXXC domain - DNA interaction; conditions: MLL-CXXC / FITC-HOXA9 DNA fluorescence polarization
Potency is the fitted concentration of half-maximal effect.

Row | Structure (SMILES) | Potency
1 | COc1cccc(C(=O)N(c2cc(C)cc(C)c2)C2CCN(C(=O)OC(C)(C)C)CC2)c1 | inconclusive: 50.1 µM
